Values from PubChem BioAssay AID504804 (Drosophila RNAi Screening Center, 2011)

Aim: 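Fly genes whose loss lessens doxorubicin-driven cell death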 (primary screen)
System: Drosophila Kc cells
Reagent: long dsRNA against Drosophila genes, 0.5 µg dsRNA per well
Duration: 96 h (48 h knock-down, then 48 h drug)
Challenge: doxorubicin 5 µg/ml for 48 h, added 48 h after dsRNA
Measurement: 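Viability measured as cellular ATP by luminescence after 48 h knock-down then 48 h doxorubicin at 5 µg/ml; unnormalised plate counts for each replicate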
Direction: raw ATP luminescence: higher = more viable cells, protection from doxorubicin
Active means: 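Active when both duplicate wells lie at least 2 SD above the plate mean and protection is confirmed by rescreening and independent dsRNAs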
The screen tested about 19,000 reagents; shown is a random part of those with a known target gene and a result. Over the whole deposit, 47 (0.25%) are marked active. 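Signals are raw, not normalised; exact z-scores behind calls not deposited; actives needed confirmation, so some wells reaching 2 SD are inactive.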 Reagents against one gene are numbered here. Reagent sequences are not shown.

| gene knocked down | reagent no. | raw ATP luminescence, replicate 1 | raw ATP luminescence, replicate 2 | Outcome |
| --- | --- | --- | --- | --- |
| CG44014 | 1 | 80460 | 75080 | inactive |
| slow | 1 | 34633 | 34337 | inactive |
| slow | 2 | 77317 | 70697 | inactive |
| Or19a | 1 | 3.41e5 | 3.55e5 | inactive |
| Taf1 | 1 | 64403 | 66333 | inactive |
| CG42390 | 1 | 56687 | 28133 | inactive |
| CG3355 | 1 | 37143 | 30510 | inactive |
| CG5639 | 1 | 41880 | 41300 | inactive |
| dsh | 1 | 3.44e5 | 2.94e5 | inactive |
| CG10669 | 1 | 52420 | 52150 | inactive |
| DIP2 | 1 | 68750 | 58967 | inactive |
| Panx | 1 | 52243 | 60837 | inactive |
| tin | 1 | 31800 | 33290 | inactive |
| CG1701 | 1 | 43527 | 84370 | inactive |
| CG31805 | 1 | 2.84e5 | 2.49e5 | inactive |
| Scgalpha | 1 | 42110 | 56970 | inactive |
| da | 1 | 44660 | 85943 | inactive |
| grk | 1 | 1.08e5 | 70957 | inactive |
| CG15743 | 1 | 3.60e5 | 3.63e5 | inactive |
| cona | 1 | 55430 | 92110 | inactive |
| CG8141 | 1 | 76050 | 57440 | inactive |
| CG1946 | 1 | 50933 | 76757 | inactive |
| CG14506 | 1 | 37480 | 35420 | inactive |
| CG17186 | 1 | 70300 | 54030 | inactive |
| SH3PX1 | 1 | 85580 | 67880 | inactive |
| CG8768 | 1 | 52847 | 44773 | inactive |
| CG15014 | 1 | 64957 | 85147 | inactive |
| ct | 1 | 18860 | 19940 | inactive |
| CG14191 | 1 | 4.00e5 | 2.70e5 | inactive |
| Cyp28a5 | 1 | 85760 | 72547 | inactive |
| CG14564 | 1 | 78383 | 63407 | inactive |
| Acbp4 | 1 | 52723 | 68197 | inactive |
| DIP-kappa | 1 | 2.26e5 | 1.92e5 | inactive |
| DIP-kappa | 2 | 3.27e5 | 2.74e5 | inactive |
